From the supplement of paper PMC10735217
Counter-ions that a name gives are not always drawn. This is one part of the list. Single values are uncertain here, since repeats match poorly.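 Human kidney-derived cells stably carry a construct in which eight TEAD-binding elements drive luciferase, measured by luminescence in a drug-repurposing library screen. A hit is any compound whose signal exceeds the plate mean by more than five robust Z scores.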

Tested on: HEK293A TEAD-LUC reporter
Assay: TEAD-luciferase reporter activity (YAP activation), robust Z score vs plate; higher = stronger YAP/TEAD activation
Conditions: 24 h

SMILES	TEAD-luciferase reporter activity (compound concentration: 200 nM)	TEAD-luciferase reporter activity (compound concentration: 2 uM)	TEAD-luciferase reporter activity (compound concentration: 10 uM)
CN1CCC(C(=O)N2c3ccccc3NC(=O)c3cccnc32)CC1	inactive: 0.513	inactive: -2.15	inactive: 0.675
COC(=O)[C@H](Cc1cccc(C(=N)N)c1)[C@@H](C)NC(=O)c1ccc(-c2cc[n+]([O-])cc2)cc1 [Otamixaban]	inactive: -0.215	inactive: -1.25	inactive: 0.246
CCN(CC)S(=O)(=O)c1ccc(NS(C)(=O)=O)cc1	inactive: -2.29	inactive: 0.433	inactive: 4.59
CCCCCCCCCCCCS[C@H](C(=O)Nc1cc(C)c(O)c(C)c1C)c1ccccc1 [Eflucimibe]	–	inactive: 0.428	–
CCCCCCCCCCCCS[C@H](C(=O)Nc1cc(C)c(O)c(C)c1C)c1ccccc1	inactive: -2.4	–	inactive: -1.45
CCN(CC)CC(=O)Oc1ccc(NC(C)=O)cc1 [propacetamol]	inactive: -1.59	inactive: 0.364	inactive: -0.747
CS(=O)(=O)NCCN1CCC(CCC(=O)c2cc(Cl)c(N)c3c2OCCO3)CC1	inactive: -0.735	inactive: -2.09	inactive: 1.25
CCCN1CCCC12Cc1ccccc1CN(C(=O)C(C)C)C2 (stereo unspecified)	inactive: -2.26	–	inactive: 0.997
CCC(=O)NO	inactive: -0.525	inactive: -0.321	inactive: -0.214
CCCCCCN(C)Cc1ccc(OCCOc2ccc(CN(C)CCCCCC)cc2)cc1	inactive: 2.3	inactive: -0.339	inactive: 0.0909
CCCCC/C=C\C/C=C\C/C=C\CCCCC(=O)OC[C@H](O)[C@H]1OC(=O)C(O)=C1O [Ascorbyl gamolenate]	inactive: -1.53	inactive: 1.09	inactive: -1.65
O=C(O)c1[nH]c2cc(Cl)cc(Cl)c2c1/C=C1\CCN(c2ccccc2)C1=O	inactive: -0.608	inactive: -0.672	inactive: -0.149
CC(N/C(=N\C#N)Nc1ccncc1)C(C)(C)C (stereo unspecified) [pinacidil]	–	inactive: 0.429	–
CC(N/C(=N\C#N)Nc1ccncc1)C(C)(C)C (stereo unspecified) [Pinacidil]	inactive: -0.515	–	inactive: -0.441
C[C@H](CCC(=O)NCCS(=O)(=O)O)[C@H]1CC[C@H]2[C@@H]3[C@H](O)C[C@@H]4C[C@H](O)CC[C@]4(C)[C@H]3C[C@H](O)[C@]12C [Taurocholic acid]	–	inactive: -1.92	–
C[C@H](CCC(=O)NCCS(=O)(=O)O)[C@H]1CC[C@H]2[C@@H]3[C@H](O)C[C@@H]4C[C@H](O)CC[C@]4(C)[C@H]3C[C@H](O)[C@]12C	inactive: -0.687	–	inactive: -1.54
CC[C@H](C)[C@H](NC(=O)[C@H](CCC(N)=O)NC(=O)[C@@H]1CCCN1C(=O)[C@H](CCCNC(=N)N)NC(=O)[C@@H]1CCCN1C(=O)[C@H](Cc1c[nH]c2ccccc12)NC(=O)[C@@H]1CCC(=O)N1)C(=O)N1CCC[C@H]1C(=O)N1CCC[C@H]1C(=O)O	inactive: -1.49	inactive: -1.2	inactive: -1.9
CC(C)NC(=O)NC1CC2(CCN(Cc3ccc(O)cc3)CC2)Oc2ccccc21 (stereo unspecified)	inactive: 2.76	–	inactive: 2.06

SMILES	TEAD-luciferase reporter activity (compound concentration: 200 nM)	TEAD-luciferase reporter activity (compound concentration: 2 uM)	TEAD-luciferase reporter activity (compound concentration: 10 uM)
CNCCC(Oc1ccccc1OC)c1ccccc1 (stereo unspecified) [Nisoxetine hydrochloride]	–	inactive: -1.34	–
CNCCC(Oc1ccccc1OC)c1ccccc1 (stereo unspecified) [Nisoxetine HCl]	inactive: -1.03	–	inactive: -0.45
CCN1CCN(C(=O)N[C@@H](C(=O)N[C@@H]2C(=O)N3C(C(=O)O)=C(CSc4nnnn4C)CS[C@H]23)c2ccc(O)cc2)C(=O)C1=O [cefoperazone]	inactive: -0.0777	inactive: 0.921	inactive: 2.53
CCCCCC/C=C/C=C\CCCCCCCC(=O)O [(9Z,11E)-Octadecadienoic acid]	inactive: -1.13	inactive: -1.98	inactive: -0.602
CC[C@H](c1ccc(O)cc1)[C@@H](CC)c1ccc(O)cc1	inactive: 0.508	inactive: -2.97	inactive: -0.177
COc1ccc(CC(=O)N2Cc3ccccc3CC23CCCN(C(=O)CN)C3)cc1 (stereo unspecified)	inactive: 0.58	–	active: 54.4
C#CCN/C(=N\C#N)NCCSCc1nc[nH]c1C	inactive: -1.01	inactive: 0.839	inactive: 2.38
C#CCN(c1nc(-c2cc(C)c(OC)cc2Cl)c(C)s1)[C@@H](CC1CC1)c1ccc(C)c(F)c1	inactive: 3.42	inactive: -1.64	inactive: -0.0219
OC(CCCN1CCc2c(c3cc(F)ccc3n2-c2ccc(F)cc2)C1)c1ccc(F)cc1 (stereo unspecified)	inactive: -1.1	inactive: 0.727	inactive: -0.123
COc1ccc(CC(=O)NCc2ccccc2-c2ccccc2C(=O)NCCc2cccnc2)cc1	inactive: -1.34	inactive: -0.649	inactive: 0.838
CCN(CC)CCOC(=O)C1(C2CCCCC2)CCCCC1 [Dicycloverine hydochloride]	–	inactive: 0.187	–
CCN(CC)CCOC(=O)C1(C2CCCCC2)CCCCC1 [Bentyl]	inactive: -1.95	–	inactive: 2.54
CC[C@@]1(O)C(=O)OCc2c1cc1n(c2=O)Cc2cc3c(CN(C)C)c(O)ccc3nc2-1 [topotecan TCS]	–	inactive: -1.81	–
CC[C@@]1(O)C(=O)OCc2c1cc1n(c2=O)Cc2cc3c(CN(C)C)c(O)ccc3nc2-1 [Topotecan Hydrochloride]	inactive: 0.0713	–	inactive: -2.02
CC(C)(C)/C=C/c1c(C#N)cc(O)c(O)c1C#N	inactive: -1.11	inactive: -1.02	inactive: -2.3
CN(C)CCCOc1nn(Cc2ccccc2)c2ccccc12 [benzydamine flufenamate]	inactive: -0.32	inactive: -0.382	inactive: -0.98
O=C(NCc1cccnc1)c1cccn2ccnc12	active: 5.38	–	inactive: -0.0219
Cc1oc(-c2ccccc2)nc1CCOc1ccc(C[C@H](Nc2ccccc2C(=O)c2ccccc2)C(=O)O)cc1 [Farglitazar]	inactive: -0.163	inactive: -0.326	inactive: 0.317

Record cards, from the list above. Values in the order: TEAD-luciferase reporter activity (compound concentration: 200 nM) | TEAD-luciferase reporter activity (compound concentration: 2 uM) | TEAD-luciferase reporter activity (compound concentration: 10 uM)
CC[C@H](c1ccc(O)cc1)[C@@H](CC)c1ccc(O)cc1 reads inactive: 0.508 | inactive: -2.97 | inactive: -0.177
OC(CCCN1CCc2c(c3cc(F)ccc3n2-c2ccc(F)cc2)C1)c1ccc(F)cc1 (stereo unspecified) reads inactive: -1.1 | inactive: 0.727 | inactive: -0.123
